According to patent US9140705B2, “Tumor suppressor killin” (Vanderbilt University, priority 2005, dated 2015):

Tested on: double-stranded or single-stranded bacteria phage PhiX174 DNA
Assay: Stability of the DNA-Killin peptide complex on agarose gel
Assay type: binding, PhiX174 bacterial phage

For “Killin/N8-50: chemically synthesized peptide of 42 amino acid residues corresponding to N8-50 of Killin (SARPGRTVHVWGYRVEWKVRNGRKLQPSEWAGRGDLGGFKRRW; UniProt B2CW77 8-50, looked up, fragment)”, the “stability of peptide-DNA complex” value (6M urea and 150 mM EDTA, ds or ss PhiX174 DNA) was “could withstand 6M urea and 150 mM EDTA” and the “stability of peptide-DNA complex” value (SDS at a concentration as low as 0.1%) was “completely disrupt the Killin-DNA complex”.
